Source: patent US6673625B2, “Saccharide sensing molecules having enhanced fluorescent properties” (The Regents of the University of California, priority 1999, dated 2004)

Assay: Glucose testing of naphthalimide boronates by fluorescence
Conditions: PBS buffer (pH 7.4)
Text: The fluorescence spectra of compounds 3 have been obtained as a function of increasing glucose concentration. […] These values range from 9% to 16% over the four compounds, with the two lower values coming from the two compounds having secondary amino groups. These low values of fractional switching are more than balanced out by the high quantum yields for compounds 3az and 3cz. As a measure of the total signal increase for each system, the product of quantum yield and fractional fluorescence increase are given in Table 1, showing that 3cz is the most promising sensor candidate of the group, as expected.
Summarized Syntheses. As the syntheses are described as a series of analogous compounds with general procedures are given below. Cyclic voltammetry was conducted using a glassy carbon working electrode, platinum counter electrode, and Ag/AgCl reference electrode and carried out in a 0.1 M solution of NBu4ClO4 in acetonitrile. Samples for fluorescence were prepared as 1.00 mM stock solutions in MeOH. A 30.0 μL aliquot of solution was then added to 3.000 mL of the appropriate solvent mixture (a combination of methanol and phosphate buffered saline—PBS). Relative quantum yields were determined by the relative output of equimolar solutions of two compounds using 3ay as a reference. Glucose additions were performed by the addition of a concentrated solution of glucose in PBS to a stirred solution of the fluorescent molecule in methanol/PBS.
General. All reactions were performed under an atmosphere of N2, followed by work-up in air. Protected boronate esters were stored under vacuum to prevent slow hydrolysis from atmospheric moisture. Unless stated otherwise, all chemicals were purchased from commercial suppliers. Anhydrous solvents from Aldrich were used for all reactions. Starting compounds known in the art such as N-n-butyl-4-chloronaphthalene-1,8-dicarboximide(1ax), 2,2-dimethylpropane-1,3-diyl[o-(bromomethyl) phenyl]boronate, were prepared by literature methods (see e.g. Daffy et al. Chem-Eur J 1998, 4, 1810-1815; de Silva et al., Chem Rev 1997, 97, 1515-1566). Samples for FT IR spectroscopy were prepared as solutions in CHCl3, and only the C═O stretches are reported here. All mass spectra were obtained using electrospray ionization (ESI/MS) with an ionization potential of 50V and a solvent system consisting of 1% acetic acid in 50/50 methanol/water. Cyclic voltammetry was conducted using a glassy carbon working electrode, platinum counter electrode, and Ag/AgCl reference electrode and carried out in a 0.1 M solution of NBu4ClO4 in acetonitrile. Samples for fluorescence measurements were prepared as 1.00 mM stock solutions in MeOH. […]

Compared with “N-(5′-Tetrahydropyranoxypentyl)-4-(N′-aminoethylene-N″-ArBmethylamino)naphthalene-1,8-dicarboximide [Compound 3cz]”, “N-(5′-Tetrahydropyranoxypentyl)-4-(N′-methylaminoethylene-N″-ArBmethylamino)naphthalene-1,8-dicarboximide [Compound 3cy]” is lower in “(Quantum Yield) * (Fluorescence Increase)” value: 512% for the first, 17% for the second.

Going from “N-n-Butyl-4-(N′-aminoethylene-N″-ArBmethylamino)naphthalene-1,8-dicarboximide [Compound 3az]” to “N-n-Butyl-4-(N′-methylaminoethylene-N″-ArBmethylamino)naphthalene-1,8-dicarboximide [Compound 3ay]”, the “(Quantum Yield) * (Fluorescence Increase)” value falls from 398% to 16%.
